Measured data: PubChem BioAssay AID1159578 (Peter MacCallum Cancer Centre, 2015)
Shown is an unselected part of about 18,000 reagents tested. Of all reagents, about 1,030 (5.7%) were called active. 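Inactive calls also include pools with fewer than 3300 nuclei, whose migration was not assessed.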 The raw values are shown without normalisation. Not all columns of the deposit are shown.

Aim: 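Knock-downs that alter how fast lymphatic endothelial cells migrate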 (primary screen)
Cell system: human lymphatic endothelial cells
Reagents: siRNA pool against human genes, 40 nM
Timing: 48 h after transfection
Read-out: 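Cells stained with dye and imaged after a scratch; covered wound area and nuclei counted, duplicates averaged, migration set against mock wells and turned into a robust z-score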
Direction: migration robust z-score: higher = faster migration into the scratch; nuclei per well: higher = more cells in the well
Call rule: 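Pools averaging fewer than 3300 nuclei are never called; remaining pools count as changed when migration robust z lies outside -2 to 2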
Calls: active = migration changed; inactive = no migration change, or too few cells

Silencing of TXLNA (taxilin alpha) resulted in: migration robust z-score -0.94; migration class with cell-count check migration z between -2 and 2; enough cells; nuclei per well, duplicate mean 5439; inactive. DEFB112 (defensin beta 112) showed migration robust z-score 0.02; migration class with cell-count check migration z between -2 and 2; enough cells; nuclei per well, duplicate mean 4514; inactive. For ATG101 (autophagy related 101) the deposit lists migration robust z-score 1.72; migration class with cell-count check migration z between -2 and 2; enough cells; nuclei per well, duplicate mean 5006; inactive. After knock-down of PNPLA4, the screen gave migration robust z-score 0.18; migration class with cell-count check migration z between -2 and 2; enough cells; nuclei per well, duplicate mean 6048; inactive. Against KIFBP (kinesin family binding protein) the deposit lists migration robust z-score 0.72; migration class with cell-count check migration z between -2 and 2; enough cells; nuclei per well, duplicate mean 5674; inactive. Against RHOQ (ras homolog family member Q), the entry reads migration robust z-score 0.31; migration class with cell-count check migration z between -2 and 2; enough cells; nuclei per well, duplicate mean 6170; inactive.

MYO3A (myosin IIIA) showed migration robust z-score -0.83; migration class with cell-count check migration z between -2 and 2; enough cells; nuclei per well, duplicate mean 4644; inactive. With knock-down of NGLY1 (N-glycanase 1), the screen gave migration robust z-score 0.36; migration class with cell-count check migration z between -2 and 2; enough cells; nuclei per well, duplicate mean 4378; inactive. OR6C70 (olfactory receptor family 6 subfamily C member 70) showed migration robust z-score 1.4; migration class with cell-count check migration z between -2 and 2; enough cells; nuclei per well, duplicate mean 6202; inactive. With knock-down of WSCD2 (WSC domain sialate O sulfotransferase 2), the screen gave migration robust z-score -1.98; migration class with cell-count check migration z between -2 and 2; enough cells; nuclei per well, duplicate mean 7062; inactive. ARNT2 (aryl hydrocarbon receptor nuclear translocator 2) gave migration robust z-score 0.24; migration class with cell-count check migration z between -2 and 2; enough cells; nuclei per well, duplicate mean 5308; inactive. ITGA9 (integrin subunit alpha 9) scored migration robust z-score 0.29; migration class with cell-count check migration z between -2 and 2; enough cells; nuclei per well, duplicate mean 6292; inactive.

With knock-down of OR13D1 (olfactory receptor family 13 subfamily D member 1) the results were migration robust z-score 1.03; migration class with cell-count check migration z between -2 and 2; enough cells; nuclei per well, duplicate mean 7076; inactive. After knock-down of LINC03124 (long independently transcribed non-coding RNA 3124) the results were migration robust z-score 0.36; migration class with cell-count check migration z between -2 and 2; enough cells; nuclei per well, duplicate mean 7752; inactive. For PNKP (polynucleotide kinase 3'-phosphatase), the values are migration robust z-score -2.49; migration class with cell-count check under 3300 nuclei; migration not judged; nuclei per well, duplicate mean 1737; inactive. Depletion of ANKRD9 (ankyrin repeat domain 9) came out at: migration robust z-score 0.67; migration class with cell-count check migration z between -2 and 2; enough cells; nuclei per well, duplicate mean 5441; inactive. ARID3B (AT-rich interaction domain 3B) scored migration robust z-score -1.5; migration class with cell-count check migration z between -2 and 2; enough cells; nuclei per well, duplicate mean 3914; inactive. CCDC12 (coiled-coil domain containing 12) gave migration robust z-score -0.92; migration class with cell-count check migration z between -2 and 2; enough cells; nuclei per well, duplicate mean 7136; inactive.

TAF1C gave migration robust z-score -0.04; migration class with cell-count check migration z between -2 and 2; enough cells; nuclei per well, duplicate mean 6646; inactive. For HS3ST6 (heparan sulfate-glucosamine 3-sulfotransferase 6), the entry reads migration robust z-score -0.28; migration class with cell-count check migration z between -2 and 2; enough cells; nuclei per well, duplicate mean 5734; inactive. For TGFB2 (transforming growth factor beta 2) the deposit lists migration robust z-score 0.52; migration class with cell-count check migration z between -2 and 2; enough cells; nuclei per well, duplicate mean 6364; inactive.

Reformatted: entries from further up
ARID3B (AT-rich interaction domain 3B)
- migration robust z-score: -1.5
- migration class with cell-count check: migration z between -2 and 2; enough cells
- nuclei per well, duplicate mean: 3914
- activity call: inactive

CCDC12 (coiled-coil domain containing 12)
- migration robust z-score: -0.92
- migration class with cell-count check: migration z between -2 and 2; enough cells
- nuclei per well, duplicate mean: 7136
- activity call: inactive
